Our source for the T/C and survivor count values is PubChem BioAssay AID296 (DTP/NCI, 2004).

The list shows only some results of the screen, not a fair sample: it gathers tests that were run many times, whatever their T/C, doses with no T/C, and many T/C values between a quarter and a half above the control. Further doses and runs are listed elsewhere. T/C is the treated group as % of the vehicle group. Schedules are NCI's codes, taken here to give the interval after Q, in days (D) or hours (H), and the number of doses after X. Some entries hold several experiments; their values stand side by side, smallest first. Some T/C values are followed by the survivors on the day toxicity was checked, most often the fifth; where none is given, no animal had died by that day. Some doses have a count of surviving animals in place of a T/C: the source holds a T/C of zero for them, seemingly a mark for toxic or unscored doses. Survivors were counted at the toxicity check, usually on the fifth day, unless a day is given; later deaths do not show.

The subject of this experiment is MX-1 breast xenograft, nude mice, tumor weight T/C. Put plainly: NCI In Vivo Anticancer Drug Screen. Data for tumor model Human Mammary Carcinoma MX-1 Xenograft (intrarenal inoculation) in NU/NU Swiss (nude) mice. To be noted: T/C endpoint: mean tumor weight change, higher T/C = larger tumour; for T/C: evaluated on day 11. In a few lines: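 Activity is given as a ratio, with each measurement in the compound-treated arm divided by the matching measurement in vehicle-dosed controls. Tumour size or survival serves as the measured parameter.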
In general terms: A xenograft is tissue or cells of one species grown in another, often human tumour cells in immunodeficient mice.

Where [1] appears, read: dose: 2400.0 mg/kg/injection, schedule: Q04DX003 (sc), vehicle: saline with Tween-80.
The mark [2] stands for this setting: dose: 600.0 mg/kg/injection, schedule: Q04DX003 (ip), vehicle: saline with Tween-80.
The mark [3] stands for this setting: dose: 200.0 mg/kg/injection, schedule: Q01DX010 (sc), vehicle: saline.
Where [4] appears, read: dose: 50.0 mg/kg/injection, schedule: Q01DX010 (sc), vehicle: saline.
Where [5] appears, read: dose: 100.0 mg/kg/injection, schedule: Q01DX010 (sc), vehicle: suspension in saline.
Setting [6] is: dose: 400.0 mg/kg/injection, schedule: Q01DX010 (sc), vehicle: suspension in saline.
Setting [7] is: dose: 600.0 mg/kg/injection, schedule: Q04DX003 (sc), vehicle: suspension in saline.
Where [8] appears, read: dose: 1200.0 mg/kg/injection, schedule: Q04DX003 (sc), vehicle: suspension in saline.
Where [9] appears, read: dose: 1200.0 mg/kg/injection, schedule: Q04DX003 (sc), vehicle: saline with Tween-80.
[10] abbreviates: dose: 600.0 mg/kg/injection, schedule: Q04DX003 (sc), vehicle: saline with Tween-80.

As for `[I][Hg][CH2]C1OCCOC1[CH2][Hg][I]` (stereo unspecified), the T/C (dose: 300.0 mg/kg/injection, schedule: Q04DX003 (sc), vehicle: Klucel (hydroxypropylcellulose) (HPC)) was 129 % of control and the T/C (dose: 600.0 mg/kg/injection, schedule: Q04DX003 (sc), vehicle: Klucel (hydroxypropylcellulose) (HPC)) is 142 % of control.
As to `C[Si](C)(C)O/C=C1\CCCCC1=O`, the survivor count by setting is: (dose: 800.0 mg/kg/injection, schedule: Q04DX003 (sc), vehicle: saline with Tween-80) 3 of 5 on day 11; (dose: 1600.0 mg/kg/injection, schedule: Q04DX003 (sc), vehicle: saline with Tween-80) 1 of 6 on day 11.
As to `NC(=S)N/N=C/c1ccc(OC(=O)COc2ccccc2)cn1`, under setting [1], the survivor count is 1 of 6 on day 11.
Take `CN(C)N=Nc1ccccc1`: the survivor count by setting is: (dose: 200.0 mg/kg/injection, schedule: Q04DX003 (sc), vehicle: Klucel (hydroxypropylcellulose) (HPC)) 2 of 6 on day 11; (dose: 400.0 mg/kg/injection, schedule: Q04DX003 (sc), vehicle: Klucel (hydroxypropylcellulose) (HPC)) 0 of 6 on day 11; (dose: 800.0 mg/kg/injection, schedule: Q04DX003 (sc), vehicle: Klucel (hydroxypropylcellulose) (HPC)) 0 of 6 on day 11.
As for `c1ccc([Te][Te]c2ccccc2)cc1`, the survivor count under setting [2] was 0 of 6 on day 11.
Turning to `C=CC(=O)NCNC(=O)C=C`, under “dose: 25.0 mg/kg/injection, schedule: Q01DX010 (sc), vehicle: saline”, the T/C was 142 % of control. Moreover, the survivor count under setting [3] is listed as 1 of 3 on day 11.
In the case of `Cc1c2ccccc2cc2cccc[n+]12`, for the setting “dose: 60.0 mg/kg/injection, schedule: Q04DX003 (sc), vehicle: saline”, the survivor count is recorded as 0 of 6 on day 11.
As for `CCN1C=C/C(=C\C=C/c2cc[n+](CC)c3ccccc23)c2ccccc21`, the survivor count (dose: 2.0 mg/kg/injection, schedule: Q01DX010 (sc), vehicle: saline) was 1 of 3 on day 11.
Take `Cc1c2ccncc2c(C)c2c1[nH]c1ccccc12`: the T/C under setting [4] is 143 % of control [2 of 2 alive on day 11]. In addition, the survivor count runs as follows: under setting [4], 1 of 3 on day 11; (dose: 100.0 mg/kg/injection, schedule: Q01DX010 (sc), vehicle: saline) 0 of 3 on day 11 and 1 of 3 on day 11; under setting [5], 0 of 3 on day 11; under setting [3], 0 of 3 on day 11; under setting [6], 0 of 3 on day 11.
`COc1ccc(/C=C/C(=O)c2cc(C(=O)O)c(OC)cc2OC)cc1OC`: the T/C is 134 % of control under setting [7]; 127 % of control under setting [8]; 126 % of control (dose: 2400.0 mg/kg/injection, schedule: Q04DX003 (sc), vehicle: suspension in saline).
As to `CCN(CC)CC[n+]1ccc2c(C)c3[nH]c4ccc(O)cc4c3c(C)c2c1`, the survivor count (dose: 50.0 mg/kg/injection, schedule: Q04DX003 (sc), vehicle: suspension in saline) was 2 of 6 on day 11 and the survivor count (dose: 100.0 mg/kg/injection, schedule: Q04DX003 (sc), vehicle: suspension in saline) is on record as 0 of 6 on day 11.
Consider `CCCCCCCC(=O)OCC(=O)[C@]1(O)Cc2c(O)c3c(c(O)c2[C@@H](OC2CC(N)C(O)C(C)O2)C1)C(=O)c1c(OC)cccc1C3=O` (stereo partly specified), for which the survivor count (dose: 16.0 mg/kg/injection, schedule: Q01DX010 (sc), vehicle: suspension in saline) was 0 of 3 on day 11.
For the molecule `[CH3][Sn]([CH3])([Cl])[S]CCN`, the T/C (dose: 37.5 mg/kg/injection, schedule: Q04DX003 (sc), vehicle: suspension in saline) is 143 % of control. The survivor count (dose: 150.0 mg/kg/injection, schedule: Q04DX003 (sc), vehicle: suspension in saline) is 0 of 6 on day 11.
As to `Cc1cc(NS(=O)(=O)c2ccc(N=Nc3cc(N=Nc4ccc(S(=O)(=O)Nc5cc(C)nc(C)n5)cc4)c4c(NC(=O)C(Cl)Cl)cccc4c3OC(=O)C(Cl)Cl)cc2)nc(C)n1` (tested in a mixture with another compound), the T/C (dose: 300.0 mg/kg/injection, schedule: Q04DX003 (sc), vehicle: suspension in saline) is 148 % of control; the T/C under setting [7] was 136 % of control; the T/C under setting [8] was 129 % of control.
In the case of `Oc1ccc(O)cc1`, the survivor count (dose: 200.0 mg/kg/injection, schedule: Q04DX003 (sc), vehicle: saline) is 2 of 6 on day 11.
On to `CC1(C)OCC2OC=CC(=O)C2O1` (stereo unspecified), for which the survivor count under setting [9] is given as 0 of 6 on day 11.
`CCC1CC2CN(CCc3c([nH]c4ccccc34)C(C(=O)OC)(c3cc4c(cc3OC)N(C)C3C(O)(C(=O)OC)C(OC(C)=O)C5(CC)C=CCN6CCC43C65)C2)C1` (stereo unspecified): the survivor count (dose: 8.0 mg/kg/injection, schedule: Q04DX003 (sc), vehicle: water) was 0 of 6 on day 11; the survivor count (dose: 16.0 mg/kg/injection, schedule: Q04DX003 (sc), vehicle: water) is 0 of 6 on day 11 and 2 of 6 on day 15; the survivor count (dose: 32.0 mg/kg/injection, schedule: Q04DX003 (sc), vehicle: saline) is recorded as 1 of 6 on day 11; the survivor count (dose: 32.0 mg/kg/injection, schedule: Q04DX003 (sc), vehicle: water) was 0 of 6 on day 11 and 3 of 6 on day 15.
For `Cc1c2ccc3ccccc3c2c[n+]2ccccc12`, the T/C (dose: 4.69 mg/kg/injection, schedule: Q04DX003 (sc), vehicle: Klucel (hydroxypropylcellulose) (HPC)) was 139 % of control. Besides, for the setting “dose: 37.5 mg/kg/injection, schedule: Q04DX003 (sc), vehicle: Klucel (hydroxypropylcellulose) (HPC)”, the survivor count is listed as 2 of 6 on day 11.
Regarding `COc1ccc2c(c1[N+](=O)[O-])CC[C@@H]1[C@@H]2CC[C@]2(C)C(=O)CC[C@@H]12`, the T/C under setting [2] was 148 % of control.
For the molecule `CC(=O)Oc1c(C)[nH]ccc1=O`, under “dose: 1600.0 mg/kg/injection, schedule: Q04DX003 (sc), vehicle: suspension in saline”, the survivor count is 3 of 6 on day 11.
Turning to `CS(=O)(=O)c1ncc(Br)cn1`, the T/C is 137 % of control (dose: 25.0 mg/kg/injection, schedule: Q01DX010 (sc), vehicle: suspension in saline); 48, 69, 75, 110 % of control (dose: 50.0 mg/kg/injection, schedule: Q01DX010 (sc), vehicle: suspension in saline); 63, 65, 84, 103 % of control under setting [5]; 70 [5 of 6 alive on day 11], 76 [5 of 6 alive on day 11], 87, 95 % of control [4 of 6 alive on day 11] (dose: 200.0 mg/kg/injection, schedule: Q01DX010 (sc), vehicle: suspension in saline). In addition, the survivor count is 0 of 6 on day 11 and 1 of 6 on day 11 under setting [6]; 0 of 6 on day 11 under setting [10].
In the case of `CCC1=C2C(=O)c3ccccc3C2=C(C)S(=O)(=O)O1`, the T/C under setting [1] is 134 % of control [5 of 6 alive on day 11].
Consider `Cc1cc2c(C(C)C)c(O)c(O)c(C=O)c2c(O)c1-c1c(C)cc2c(C(C)C)c(O)c(O)c(C=O)c2c1O`, for which the T/C (dose: 150.0 mg/kg/injection, schedule: Q04DX003 (sc), vehicle: saline with Tween-80) was 126 % of control [5 of 6 alive on day 11]. In addition, the survivor count (dose: 300.0 mg/kg/injection, schedule: Q04DX003 (sc), vehicle: saline with Tween-80) is 3 of 6 on day 11; the survivor count under setting [10] is reported as 3 of 6 on day 11; the survivor count under setting [9] was 0 of 6 on day 11.
